# Source: PubChem BioAssay AID493014 (National Center for Advancing Translational Sciences (NCATS), 2011)
# The other results are listed elsewhere or left out. Shown are side measurements of this screen, not its main read-out; they come without a call. Compounds called inactive in the main read-out are mostly missing here. The note in brackets gives the kind of curve behind each potency; many fits are weak.
# Assay: qHTS Assay to Find Inhibitors of Chronic Active B-Cell Receptor Signaling
# Conditions: ABC-DLBCL IkBa-CBG/CBR reporter, luminescence ratio (green luciferase fused to IkBa over red control in TMD8 lymphoma cells), 4 h
# Summary of the method: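 Doxycycline induced both beetle luciferases in TMD8 lymphoma cells; IKK-driven degradation limits the IkappaBalpha-fused green signal, while red luminescence normalises for cell number and nonspecific effects. Compounds tested up to 46 uM, 4 hrs.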
# [1] = measured here: CBR red luminescence, cell number
# [2] = measured here: IkBa-CBG green luminescence
Structure (SMILES),AC50 [1],AC50 [2]
Cc1c(/C=N/NC(=O)c2sc3ccccc3c2Cl)cnn1C,"2.82 µM [falling, partial curve, poor fit]",
CN(C)c1nc(N)nc(CSc2nnnn2-c2ccc(C(=O)O)cc2)n1,"16.4 µM [rising, partial curve, poor fit]",
COc1ccc(/C=C(/NC(=O)c2ccccc2)C(=O)N/N=C/c2cccs2)cc1OC,"3.55 µM [rising, partial curve, poor fit]",
O=C(CSc1nc(O)cc(=O)n1-c1ccccc1)Nc1ccc(Br)cn1,,"14.1 µM [rising, partial curve, poor fit]"
O=C1C=C(O)c2cccc(O)c2C1=O,"6.31 µM [falling, partial curve, poor fit]",
O=[N+]([O-])c1ccccc1NC(=S)N/N=C/c1ccc(O)c(O)c1,"0.891 µM [falling, full curve, poor fit]",
NC(=O)COc1ccccc1/C=C1/SC(=O)N(CC(=O)N2CCc3ccccc3C2)C1=O,"14.1 µM [falling, partial curve, poor fit]",
O=C(Nc1ccc(F)cc1)N1CCCN(c2nccc(C(F)(F)F)n2)CC1,"28.2 µM [falling, single point]",
Nc1cc(Cl)nc(N/N=C/c2ccccc2[N+](=O)[O-])n1,"11.2 µM [falling, partial curve, poor fit]",
COc1ccc(OCc2cc(C(=O)N3C[C@@H](C)O[C@@H](C)C3)no2)c(Cl)c1,"12.6 µM [rising, partial curve, poor fit]",
Cc1cc(C)c(C)c(OC(=O)c2sc(Cl)nc2C)c1,"23.1 µM [falling, single point]",
Cc1ccc(NC(=O)c2cc([N+](=O)[O-])ccc2NCc2cccnc2)cc1Cl,"7.08 µM [falling, full curve, poor fit]",
CCCNC(=O)COC(=O)C1CCN(S(=O)(=O)c2ccc3c(c2)OCCO3)CC1,"32.6 µM [rising, partial curve, poor fit]",
Cc1nnc2n1N=CC=C(c1ccccc1)S2,"32.6 µM [falling, single point]",
CC(=O)c1ccc2c(c1)C1C=CCC1C(c1cc3c(cc1Br)OCO3)N2 (centres undefined),,"23.1 µM [falling, single point]"
O=c1oc2ccccc2c(N2CCCC2)c1CN1CCCC1,"1.46 µM [falling, partial curve, poor fit]",
CCc1cc2c(=O)n(Cc3ccco3)c(SCC(=O)N(C)C3CCS(=O)(=O)C3)nc2s1 (centres undefined),"5.62 µM [falling, partial curve]",
O=C(c1cccn2c(=O)c3cc(Cl)ccc3nc12)N1CCN(c2ccccc2F)CC1,"3.55 µM [falling, partial curve, poor fit]",
CC1CCN(c2ccc(C(=O)O)cc2NS(=O)(=O)c2ccc(Br)cc2)CC1,"25.9 µM [rising, single point]",
CCNc1nc(SCC(=O)Nc2ccc(Cl)c(Cl)c2)nc(N(C)C)n1,"0.501 µM [rising, full curve, poor fit]",
CCCCOc1ccc(C(=O)N2CCCC2)cc1,"3.66 µM [rising, full curve, poor fit]",
CC(C)C(NC(=O)C(c1ccccc1)c1ccccc1)c1nc2ccccc2[nH]1 (centres undefined),"18.4 µM [rising, partial curve, poor fit]",

Structure (SMILES),AC50 [1],AC50 [2]
COc1ccc(C)cc1Nc1n[n+](-c2ccccc2)c(-c2c(Cl)cccc2Cl)s1,"17.8 µM [falling, single point]",
C/C(CC(=O)Nc1cc(C)ccn1)=N\NC(=O)c1ccc(C)cc1,"7.94 µM [falling, partial curve, poor fit]",
Clc1ccc(CSc2nncn2-c2ccccn2)cc1,"25.9 µM [rising, single point]",
CCc1ccc(NC(=O)N2CCN(c3ccc(F)cc3)CC2)cc1,"0.708 µM [rising, full curve, poor fit]",
CCOc1ccccc1NC(=O)CCC(=O)Nc1ccccc1OCC,"0.651 µM [falling, partial curve, poor fit]",
CS(=O)(=O)N(Cc1nc(-c2ccc(F)cc2)no1)c1ccccc1Cl,"8.2 µM [falling, partial curve, poor fit]",
COc1ccccc1CCC(=O)Nc1ncc(C)s1,"11.2 µM [falling, single point]",
COc1ccc(NC(=O)C/C(C)=N/NC(=O)C(=O)NC(C)C)c(OC)c1,"2 µM [rising, full curve, poor fit]",
O=C(Nc1nc(-c2ccccc2)cs1)C1CCCCN1S(=O)(=O)c1ccccc1 (centres undefined),"0.82 µM [falling, full curve, poor fit]",
CN(C)S(=O)(=O)c1ccc(N2CCOCC2)c(C(=O)O)c1,"3.66 µM [rising, single point]",
O=C(N/N=C/c1c[nH]c2ccccc12)c1ccc2c(c1)OCCO2,"8.91 µM [falling, partial curve]",
COC(=O)c1ccc(OC(=O)/C=C/c2ccco2)cc1,"11.2 µM [rising, partial curve, poor fit]",
O=C(NCC1CCCO1)C1CCCN(Cc2cnn(-c3ccccc3)c2-n2cccc2)C1 (centres undefined),"29.1 µM [rising, single point]",
CCOC(=O)/C(C#N)=C\c1c(OCC)n(CC)c2ccccc12,,"25.9 µM [rising, partial curve, poor fit]"
Cc1cccc(C(=O)Nc2nnc(Cc3ccccc3)s2)c1,"35.5 µM [falling, partial curve, poor fit]",
Cc1cc(C)c(C#N)c(OCC(=O)c2ccccc2)n1,"3.16 µM [rising, partial curve]",
CCOC(=O)CNC(=O)c1c(C)nn(-c2ccccc2)c1Cl,"6.51 µM [rising, partial curve, poor fit]",
Cc1cc(C(=O)COC(=O)c2ccc(Br)o2)c(C)n1Cc1ccco1,"8.91 µM [rising, partial curve, poor fit]",
Cc1noc(C)c1COC(=O)/C=C/c1ccc(Cl)cc1,"15.8 µM [rising, single point]",
CSc1ccccc1C(=O)NC1CC2CCC1C2 (centres undefined),"6.51 µM [falling, single point]",
CN(C)CCNC(=O)c1[nH]nc2c1CCc1ccccc1-2,"25.1 µM [falling, partial curve, poor fit]",
COC(=O)[C@H](Cc1ccccc1)NC(=O)NCCc1ccc(OC)cc1,"1.26 µM [rising, full curve, poor fit]",

# Full records, quoted from the list:
# CS(=O)(=O)N(Cc1nc(-c2ccc(F)cc2)no1)c1ccccc1Cl as listed: AC50 [1]: 8.2 µM [falling, partial curve, poor fit]
# Cc1cc(C)c(C#N)c(OCC(=O)c2ccccc2)n1 as listed: AC50 [1]: 3.16 µM [rising, partial curve]
# CN(C)S(=O)(=O)c1ccc(N2CCOCC2)c(C(=O)O)c1 as listed: AC50 [1]: 3.66 µM [rising, single point]
# Clc1ccc(CSc2nncn2-c2ccccn2)cc1 as listed: AC50 [1]: 25.9 µM [rising, single point]

# The list goes on:

Structure (SMILES),AC50 [1],AC50 [2]
CC(Nc1ccc(Br)cc1)C(=O)Nc1cccc(S(=O)(=O)N2CCOCC2)c1 (centres undefined),"16.4 µM [falling, single point]",
CCOc1cccc2cc(C(=O)OCC(=O)Nc3c(C)cccc3CC)c(=O)oc12,"11.6 µM [falling, partial curve, poor fit]",
CCOc1ccc(CC(=O)Nc2c(C(N)=O)oc3ccccc23)cc1OCC,"1.03 µM [falling, full curve]",
CCOC(=O)CC(=O)CSCC(=O)Nc1ccc(C)cc1,"20.6 µM [falling, single point]",
COc1ccc(C(C(=O)NC2CCCCC2)N(C(=O)c2ccco2)c2ccccc2OC)cc1 (centres undefined),"3.98 µM [falling, partial curve, poor fit]",
COc1ccc(C2CC(=O)N3CN(c4ccccc4F)CSC3=C2C#N)cc1OC (centres undefined),"2.91 µM [rising, single point]",
COc1ccc(Cl)cc1C(=O)Nc1ccc(Br)c(C)n1,"35.5 µM [rising, partial curve, poor fit]",
Cc1cc(Nc2cccc(Cl)c2)nc(NCc2ccccc2)n1,"29.1 µM [falling, single point]",
CC1(C)Cc2cccc(C(=O)Nc3ccc(F)cc3F)c2O1,"20 µM [rising, partial curve, poor fit]",
COc1ccc(CCNC(=O)c2ccc3c(c2)OCO3)cc1,"11.2 µM [falling, partial curve, poor fit]",
Cc1ccc(-c2cc(-c3cccc(F)c3)n[nH]2)c(O)c1,"7.31 µM [falling, partial curve]",
CN(C)C=C1C(=O)c2ccccc2C1=O,"23.1 µM [falling, single point]",
C=CCc1ccccc1OCC(O)CN1CCN(C(=O)OCC)CC1 (centres undefined),"17.8 µM [falling, partial curve, poor fit]",
Cc1cc(-c2ccc(C(C)C)c(S(=O)(=O)N3CCN(c4ccccc4)CC3)c2)on1,"7.94 µM [rising, partial curve, poor fit]",
Cc1ccc(S(=O)(=O)N2CCOCC2)cc1C(=O)N1CCN(S(=O)(=O)c2cccc(F)c2)CC1,"5.8 µM [falling, single point]",
O=C(Nc1cccc(Oc2ccc(C(=O)O)c(C(=O)O)c2)c1)c1ccc(-c2ccccc2)cc1,"1.12 µM [falling, full curve]",
CC(C)c1ccc(NC(=O)c2ccc(NC3=NC4CS(=O)(=O)CC4S3)cc2)cc1 (centres undefined),"3.98 µM [rising, full curve, poor fit]",
CC(CC(=O)Nc1cccc(Cl)c1)c1ccccc1 (centres undefined),"1.16 µM [rising, full curve, poor fit]",
O=C1OCCC1Sc1nnc(-c2ccc3c(c2)OCO3)o1 (centres undefined),"3.16 µM [falling, partial curve]",
COc1cc(C(=O)N2CC(C)OC(C)C2)c([N+](=O)[O-])cc1OC (centres undefined),"0.00411 µM [rising, full curve, poor fit]",
